Results from paper PMC6262856.
Results are given in words; binding and its absence hold for the method and conditions named. In cells and extracts the contact can be indirect. Some binding calls cover weakened binding; strength is not graded here. For some assays here: Tags and fused reporters may be left off the sequences shown.

By UniProt entry, the sequences of proteins in these tests, tags left out.
UniProt P60842: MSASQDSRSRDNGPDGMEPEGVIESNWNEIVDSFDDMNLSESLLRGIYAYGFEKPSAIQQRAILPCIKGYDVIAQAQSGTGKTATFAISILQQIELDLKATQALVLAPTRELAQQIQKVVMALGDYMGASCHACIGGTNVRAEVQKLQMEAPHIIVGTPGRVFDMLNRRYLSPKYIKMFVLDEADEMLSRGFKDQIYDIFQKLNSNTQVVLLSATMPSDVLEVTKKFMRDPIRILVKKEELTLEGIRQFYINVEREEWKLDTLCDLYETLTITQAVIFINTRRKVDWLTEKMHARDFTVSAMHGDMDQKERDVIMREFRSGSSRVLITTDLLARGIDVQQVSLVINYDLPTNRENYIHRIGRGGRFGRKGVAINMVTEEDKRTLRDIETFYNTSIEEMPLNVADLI

B1: GFP-PAIP1, Q9H074 1-479 (protein)
chain: MSDGFDRAPGAGRGRSRGLGRGGGGPEGGGFPNGAGPAERARHQPPQPKAPGFLQPPPLRQPRTTPPPGAQCEVPASPQRPSRPGALPEQTRPLRAPPSSQDKIPQQNSESAMAKPQVVVAPVLMSKLSVNAPEFYPSGYSSSYTESYEDGCEDYPTLSEYVQDFLNHLTEQPGSFETEIEQFAETLNGCVTTDDALQELVELIYQQATSIPNFSYMGARLCNYLSHHLTISPQSGNFRQLLLQRCRTEYEVKDQAAKGDEVTRKRFHAFVLFLGELYLNLEIKGTNGQVTRADILQVGLRELLNALFSNPMDDNLICAVKLLKLTGSVLEDAWKEKGKMDMEEIIQRIENVVLDANCSRDVKQMLLKLVELRSSNWGRVHATSTYREATPENDPNYFMNEPTFYTSDGVPFTAADPDYQEKYQELLEREDFFPDYEENGTDLSGAGDPYLDDIDDEMDPEIEEAYEKFCLESERKRKQ
B2: DAP5 (protein, UniProt P78344 1-907)
chain: MESAIAEGGASRFSASSGGGGSRGAPQHYPKTAGNSEFLGKTPGQNAQKWIPARSTRRDDNSAANNSANEKERHDAIFRKVRGILNKLTPEKFDKLCLELLNVGVESKLILKGVILLIVDKALEEPKYSSLYAQLCLRLAEDAPNFDGPAAEGQPGQKQSTTFRRLLISKLQDEFENRTRNVDVYDKRENPLLPEEEEQRAIAKIKMLGNIKFIGELGKLDLIHESILHKCIKTLLEKKKRVQLKDMGEDLECLCQIMRTVGPRLDHERAKSLMDQYFARMCSLMLSKELPARIRFLLQDTVELREHHWVPRKAFLDNGPKTINQIRQDAVKDLGVFIPAPMAQGMRSDFFLEGPFMPPRMKMDRDPLGGLADMFGQMPGSGIGTGPGVIQDRFSPTMGRHRSNQLFNGHGGHIMPPTQSQFGEMGGKFMKSQGLSQLYHNQSQGLLSQLQGQSKDMPPRFSKKGQLNADEISLRPAQSFLMNKNQVPKLQPQITMIPPSAQPPRTQTPPLGQTPQLGLKTNPPLIQEKPAKTSKKPPPSKEELLKLTETVVTEYLNSGNANEAVNGVREMRAPKHFLPEMLSKVIILSLDRSDEDKEKASSLISLLKQEGIATSDNFMQAFLNVLDQCPKLEVDIPLVKSYLAQFAARAIISELVSISELAQPLESGTHFPLFLLCLQQLAKLQDREWLTELFQQSKVNMQKMLPEIDQNKDRMLEILEGKGLSFLFPLLKLEKELLKQIKLDPSPQTIYKWIKDNISPKLHVDKGFVNILMTSFLQYISSEVNPPSDETDSSSAPSKEQLEQEKQLLLSFKPVMQKFLHDHVDLQVSALYALQVHCYNSNFPKGMLLRFFVHFYDMEIIEEEAFLAWKEDITQEFPGKGKALFQVNQWLTWLETAEEEESEEEAD

Columns and labels:
[1] = molecular target: FLAG-eIF4A1 (human), P60842; test: co-IP; 293T cells lysed in NP-40 lysis buffer; pre-cleared lysates treated with EtOH or 15d-PGJ2 at 30°C for 1 h; anti-FLAG antibody on protein G agarose, 4°C 1 h; western blot of the precipitate; settings: remark: other sources report otherwise
FLAG-eIF4A1 (human) = FLAG-eIF4A1 (human) (UniProt P60842); test: as above

Binder | binding [1] | binding (FLAG-eIF4A1 (human))
B1 | binds | –
B2 | – | binds
